The other results are listed elsewhere or left out.
Columns and labels:
Test in all cases: log2 fold change, soluble protein after heating vs DMSO (PISA); higher = thermal stabilisation; K562 cells, 10 uM, 30 min; active = over 0.2 and 3.5 SD of the protein, either way, in both replicates (recomputed)
[1] = compound: Cc1ccc(NC(=O)c2ccc(CN3CC[C@H](N(C)C)C3)c(C(F)(F)F)c2)cc1Nc1nccc(-c2cncnc2)n1 [bafetinib]
Procedure, shortened: (§1)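 K562 cells at 2×10^6 cells/mL were treated with 10 μM compound for 30 min. Aliquots were heated for 3 min across 48°C-58°C, pooled, and extracted in PBS with 0.5% NP-40 at 4°C; soluble protein was the supernatant after 21,000xg for 90 min. Soluble protein was quantified by TMTpro 16plex LC-MS/MS with channel sums equalised, and reported as log2 fold change in thermal stability against DMSO controls, with values from duplicates.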

By UniProt entry, the sequences of proteins in these tests, tags left out. Where a name states a change or a piece, a line headed by the entry shows the natural chain unless it says otherwise.
UniProt Q9Y484: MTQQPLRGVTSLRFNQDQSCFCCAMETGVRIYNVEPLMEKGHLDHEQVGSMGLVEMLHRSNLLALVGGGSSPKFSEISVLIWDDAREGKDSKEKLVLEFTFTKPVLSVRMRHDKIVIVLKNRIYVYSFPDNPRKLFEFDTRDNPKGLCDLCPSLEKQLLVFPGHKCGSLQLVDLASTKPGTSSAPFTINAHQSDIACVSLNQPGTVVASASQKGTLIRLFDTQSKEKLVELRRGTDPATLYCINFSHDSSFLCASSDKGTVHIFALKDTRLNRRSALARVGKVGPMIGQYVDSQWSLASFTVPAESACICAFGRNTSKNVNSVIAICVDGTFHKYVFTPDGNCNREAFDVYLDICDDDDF
UniProt P30291: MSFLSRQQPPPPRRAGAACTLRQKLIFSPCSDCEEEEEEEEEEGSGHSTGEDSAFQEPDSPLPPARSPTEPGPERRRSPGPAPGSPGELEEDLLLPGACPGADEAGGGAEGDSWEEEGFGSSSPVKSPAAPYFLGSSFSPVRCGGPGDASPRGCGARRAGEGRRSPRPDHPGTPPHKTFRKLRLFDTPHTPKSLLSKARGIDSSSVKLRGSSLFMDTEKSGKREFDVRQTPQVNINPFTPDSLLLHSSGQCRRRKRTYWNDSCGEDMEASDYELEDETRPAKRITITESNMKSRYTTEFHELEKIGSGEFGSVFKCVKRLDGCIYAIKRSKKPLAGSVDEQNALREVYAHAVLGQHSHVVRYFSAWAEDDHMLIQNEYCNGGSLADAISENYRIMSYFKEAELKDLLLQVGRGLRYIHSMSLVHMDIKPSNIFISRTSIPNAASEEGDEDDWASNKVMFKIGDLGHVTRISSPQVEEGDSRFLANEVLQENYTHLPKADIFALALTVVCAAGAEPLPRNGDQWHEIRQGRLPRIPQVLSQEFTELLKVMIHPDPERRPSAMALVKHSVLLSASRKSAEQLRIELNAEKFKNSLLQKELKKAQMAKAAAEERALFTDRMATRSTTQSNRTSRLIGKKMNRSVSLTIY
UniProt Q96JC1: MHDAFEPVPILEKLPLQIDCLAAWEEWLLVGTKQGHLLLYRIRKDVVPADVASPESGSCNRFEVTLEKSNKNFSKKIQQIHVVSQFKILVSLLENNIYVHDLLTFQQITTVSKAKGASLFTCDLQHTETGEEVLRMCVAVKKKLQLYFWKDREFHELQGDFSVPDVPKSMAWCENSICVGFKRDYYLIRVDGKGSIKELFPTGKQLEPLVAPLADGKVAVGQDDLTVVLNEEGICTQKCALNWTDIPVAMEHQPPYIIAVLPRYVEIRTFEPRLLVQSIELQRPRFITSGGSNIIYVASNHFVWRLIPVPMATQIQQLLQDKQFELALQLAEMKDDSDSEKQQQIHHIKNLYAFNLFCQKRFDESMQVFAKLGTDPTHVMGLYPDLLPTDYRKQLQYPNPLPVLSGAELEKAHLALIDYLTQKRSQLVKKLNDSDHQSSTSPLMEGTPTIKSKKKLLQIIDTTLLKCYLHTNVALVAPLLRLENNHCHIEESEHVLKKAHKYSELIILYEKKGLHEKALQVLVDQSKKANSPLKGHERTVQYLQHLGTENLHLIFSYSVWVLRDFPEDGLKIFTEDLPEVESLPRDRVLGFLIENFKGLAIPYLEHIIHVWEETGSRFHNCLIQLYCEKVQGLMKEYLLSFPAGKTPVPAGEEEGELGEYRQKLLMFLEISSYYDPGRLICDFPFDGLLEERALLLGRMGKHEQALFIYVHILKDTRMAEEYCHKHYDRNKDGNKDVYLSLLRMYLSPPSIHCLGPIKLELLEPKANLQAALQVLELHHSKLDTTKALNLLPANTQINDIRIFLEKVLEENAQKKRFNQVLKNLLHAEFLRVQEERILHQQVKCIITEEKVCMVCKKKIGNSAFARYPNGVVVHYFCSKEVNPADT
UniProt Q6P4I2: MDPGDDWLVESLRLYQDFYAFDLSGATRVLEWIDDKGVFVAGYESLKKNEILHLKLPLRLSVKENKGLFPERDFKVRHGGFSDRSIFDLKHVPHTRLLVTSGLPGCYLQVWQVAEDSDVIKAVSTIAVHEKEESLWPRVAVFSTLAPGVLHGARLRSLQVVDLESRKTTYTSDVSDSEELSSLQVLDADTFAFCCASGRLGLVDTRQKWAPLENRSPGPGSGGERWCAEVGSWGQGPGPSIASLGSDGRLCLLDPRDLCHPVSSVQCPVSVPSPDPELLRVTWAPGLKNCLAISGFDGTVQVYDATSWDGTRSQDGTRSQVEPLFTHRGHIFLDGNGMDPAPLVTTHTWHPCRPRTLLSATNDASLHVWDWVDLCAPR
UniProt Q12768: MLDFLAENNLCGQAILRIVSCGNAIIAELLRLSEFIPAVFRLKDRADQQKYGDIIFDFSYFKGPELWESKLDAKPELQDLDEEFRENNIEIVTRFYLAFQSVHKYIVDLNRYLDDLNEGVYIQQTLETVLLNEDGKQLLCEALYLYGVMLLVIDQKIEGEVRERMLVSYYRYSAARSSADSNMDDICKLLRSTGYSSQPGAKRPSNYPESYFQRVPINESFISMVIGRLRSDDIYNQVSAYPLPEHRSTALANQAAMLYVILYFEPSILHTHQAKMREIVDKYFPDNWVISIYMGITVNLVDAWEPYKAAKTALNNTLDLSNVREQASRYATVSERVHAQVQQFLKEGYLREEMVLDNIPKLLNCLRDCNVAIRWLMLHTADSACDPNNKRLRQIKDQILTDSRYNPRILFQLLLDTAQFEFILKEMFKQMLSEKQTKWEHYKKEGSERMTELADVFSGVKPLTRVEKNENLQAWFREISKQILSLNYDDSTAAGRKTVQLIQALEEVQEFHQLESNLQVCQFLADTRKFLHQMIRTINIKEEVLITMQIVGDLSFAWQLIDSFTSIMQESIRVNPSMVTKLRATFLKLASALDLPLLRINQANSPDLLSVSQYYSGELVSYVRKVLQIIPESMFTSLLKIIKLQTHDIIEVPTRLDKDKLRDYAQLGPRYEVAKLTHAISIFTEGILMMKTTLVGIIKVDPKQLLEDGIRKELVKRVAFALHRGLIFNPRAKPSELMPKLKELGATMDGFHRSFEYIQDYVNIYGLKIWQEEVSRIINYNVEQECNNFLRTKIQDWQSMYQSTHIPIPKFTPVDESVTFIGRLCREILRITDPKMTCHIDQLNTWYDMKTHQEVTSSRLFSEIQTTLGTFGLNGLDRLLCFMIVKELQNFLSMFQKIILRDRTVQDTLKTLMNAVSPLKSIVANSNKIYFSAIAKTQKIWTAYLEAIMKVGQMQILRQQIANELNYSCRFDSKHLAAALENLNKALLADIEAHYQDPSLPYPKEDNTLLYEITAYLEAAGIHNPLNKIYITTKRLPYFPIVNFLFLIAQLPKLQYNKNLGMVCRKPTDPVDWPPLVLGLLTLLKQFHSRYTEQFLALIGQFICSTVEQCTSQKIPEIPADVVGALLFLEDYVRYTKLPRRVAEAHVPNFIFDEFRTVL
UniProt Q9HAD4: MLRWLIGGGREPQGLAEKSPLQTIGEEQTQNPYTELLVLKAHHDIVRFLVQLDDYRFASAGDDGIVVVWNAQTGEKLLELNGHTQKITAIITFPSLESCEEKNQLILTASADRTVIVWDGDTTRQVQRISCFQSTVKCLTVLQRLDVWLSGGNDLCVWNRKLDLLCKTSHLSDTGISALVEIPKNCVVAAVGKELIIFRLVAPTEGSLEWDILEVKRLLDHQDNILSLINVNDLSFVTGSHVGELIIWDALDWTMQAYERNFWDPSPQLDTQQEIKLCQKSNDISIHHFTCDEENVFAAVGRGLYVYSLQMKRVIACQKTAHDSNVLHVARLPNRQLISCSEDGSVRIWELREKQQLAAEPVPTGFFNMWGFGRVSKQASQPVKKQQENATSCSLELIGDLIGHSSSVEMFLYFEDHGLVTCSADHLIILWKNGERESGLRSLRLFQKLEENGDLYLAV
UniProt O95785: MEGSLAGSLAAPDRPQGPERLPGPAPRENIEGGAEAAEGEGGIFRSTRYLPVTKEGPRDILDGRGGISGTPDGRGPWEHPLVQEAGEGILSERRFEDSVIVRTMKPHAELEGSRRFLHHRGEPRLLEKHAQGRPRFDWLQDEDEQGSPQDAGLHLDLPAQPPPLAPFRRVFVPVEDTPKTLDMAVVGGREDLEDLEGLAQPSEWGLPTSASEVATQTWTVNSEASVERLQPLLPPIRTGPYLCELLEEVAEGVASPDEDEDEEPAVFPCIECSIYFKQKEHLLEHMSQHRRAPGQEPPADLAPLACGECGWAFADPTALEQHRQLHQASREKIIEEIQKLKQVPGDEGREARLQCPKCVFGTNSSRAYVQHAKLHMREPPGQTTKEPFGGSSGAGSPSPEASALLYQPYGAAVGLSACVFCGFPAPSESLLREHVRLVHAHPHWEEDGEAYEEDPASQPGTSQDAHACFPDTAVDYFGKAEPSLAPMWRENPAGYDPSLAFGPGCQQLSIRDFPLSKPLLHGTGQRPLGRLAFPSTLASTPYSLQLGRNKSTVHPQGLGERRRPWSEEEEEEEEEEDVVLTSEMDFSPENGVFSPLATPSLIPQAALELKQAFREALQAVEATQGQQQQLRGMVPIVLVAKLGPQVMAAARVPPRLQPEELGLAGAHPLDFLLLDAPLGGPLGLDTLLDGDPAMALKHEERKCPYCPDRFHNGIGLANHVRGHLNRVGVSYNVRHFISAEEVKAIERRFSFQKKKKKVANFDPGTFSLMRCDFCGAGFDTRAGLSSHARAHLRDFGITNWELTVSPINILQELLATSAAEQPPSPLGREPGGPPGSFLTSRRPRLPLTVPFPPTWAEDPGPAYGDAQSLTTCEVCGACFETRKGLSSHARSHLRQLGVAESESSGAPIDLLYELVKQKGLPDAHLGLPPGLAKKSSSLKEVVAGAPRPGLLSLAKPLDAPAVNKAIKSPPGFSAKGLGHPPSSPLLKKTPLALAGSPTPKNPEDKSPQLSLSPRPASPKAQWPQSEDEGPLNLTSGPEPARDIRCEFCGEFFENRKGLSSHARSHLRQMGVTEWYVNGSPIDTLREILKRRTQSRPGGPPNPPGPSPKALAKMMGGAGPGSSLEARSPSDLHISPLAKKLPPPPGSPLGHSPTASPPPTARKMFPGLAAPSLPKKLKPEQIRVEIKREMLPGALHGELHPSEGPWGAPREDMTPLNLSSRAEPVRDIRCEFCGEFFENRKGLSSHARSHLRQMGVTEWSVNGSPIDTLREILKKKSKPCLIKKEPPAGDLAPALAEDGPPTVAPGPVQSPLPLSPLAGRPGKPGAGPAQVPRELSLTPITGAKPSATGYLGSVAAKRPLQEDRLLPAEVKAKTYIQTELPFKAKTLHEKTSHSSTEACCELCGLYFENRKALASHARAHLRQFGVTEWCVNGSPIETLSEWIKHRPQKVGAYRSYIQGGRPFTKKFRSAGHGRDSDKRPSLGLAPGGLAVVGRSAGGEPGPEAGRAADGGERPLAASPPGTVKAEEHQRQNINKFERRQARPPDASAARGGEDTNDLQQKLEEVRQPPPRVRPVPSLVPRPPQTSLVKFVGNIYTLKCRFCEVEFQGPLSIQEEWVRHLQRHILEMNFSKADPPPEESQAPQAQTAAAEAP
UniProt Q96GC9: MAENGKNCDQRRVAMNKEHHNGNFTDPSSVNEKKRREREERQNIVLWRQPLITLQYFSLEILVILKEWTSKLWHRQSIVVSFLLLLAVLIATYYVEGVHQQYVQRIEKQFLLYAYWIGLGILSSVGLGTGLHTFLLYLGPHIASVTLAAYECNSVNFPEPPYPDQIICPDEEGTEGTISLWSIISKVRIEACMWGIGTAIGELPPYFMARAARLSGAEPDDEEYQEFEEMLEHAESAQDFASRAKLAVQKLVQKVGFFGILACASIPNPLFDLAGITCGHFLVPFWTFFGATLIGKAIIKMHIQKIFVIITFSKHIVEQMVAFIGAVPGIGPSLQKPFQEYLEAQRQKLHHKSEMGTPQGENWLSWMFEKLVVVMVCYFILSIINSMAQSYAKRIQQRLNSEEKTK
UniProt Q9P2S5: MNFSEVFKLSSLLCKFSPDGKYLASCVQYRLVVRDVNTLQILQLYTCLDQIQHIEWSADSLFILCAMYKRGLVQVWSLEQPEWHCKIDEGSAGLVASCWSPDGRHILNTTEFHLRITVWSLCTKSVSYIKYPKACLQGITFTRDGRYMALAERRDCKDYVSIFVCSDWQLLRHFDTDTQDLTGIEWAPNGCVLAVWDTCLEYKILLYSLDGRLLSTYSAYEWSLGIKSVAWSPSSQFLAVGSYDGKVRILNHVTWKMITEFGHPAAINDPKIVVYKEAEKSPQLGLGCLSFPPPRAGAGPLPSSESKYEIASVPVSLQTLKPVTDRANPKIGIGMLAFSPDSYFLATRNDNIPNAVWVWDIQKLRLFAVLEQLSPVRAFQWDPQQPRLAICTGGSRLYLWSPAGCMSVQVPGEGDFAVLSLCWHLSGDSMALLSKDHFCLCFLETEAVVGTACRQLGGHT

[2] = compound: Cc1cccc(CC(=O)N2CCc3c2ccc(-c2cn(C)c4ncnc(N)c24)c3F)n1
Procedure, shortened: as §1

[3] = compound: Cc1cn(-c2cc(NC(=O)c3ccc(C)c(Nc4nccc(-c5cccnc5)n4)c3)cc(C(F)(F)F)c2)cn1 [nilotinib]
Procedure, shortened: as §1

[4] = compound: Cc1nc(Nc2n[nH]c3c2CN(C(=O)N[C@H](CN(C)C)c2ccccc2)C3(C)C)c2sccc2n1
Procedure, shortened: as §1

[5] = compound: Cc1nc(Nc2ncc(C(=O)Nc3c(C)cccc3Cl)s2)cc(N2CCN(CCO)CC2)n1 [dasatinib]
Procedure, shortened: as §1

[6] = compound: Cc1ncc(-c2ccnc(Nc3ccc(S(C)(=O)=O)cc3)n2)n1C(C)C
Procedure, shortened: as §1

[7] = compound: Cn1cc(-c2ccc3c(c2)CCN3C(=O)Cc2cccc(C(F)(F)F)c2)c2c(N)ncnc21
Procedure, shortened: as §1

[8] = compound: Cn1cc(-c2ccc3nnc(C(F)(F)c4ccc5ncccc5c4)n3n2)cn1
Procedure, shortened: as §1

[9] = compound: Cn1cncc1[C@@](N)(c1ccc(Cl)cc1)c1ccc2c(c1)c(-c1cccc(Cl)c1)cc(=O)n2C [tipifarnib]
Procedure, shortened: as §1

[10] = compound: FC(F)(F)c1ccc(/C=C/c2nc(COc3ccc(CCCCn4ccnn4)cc3)co2)cc1 [mubritinib]
Procedure, shortened: as §1

Measured: log2 fold change

VPS13B (UniProt Q7Z7G8)
inactive: [1] -0.075 | [2] -0.012 | [3] -0.005 | [4] 0.049 | [5] 0.047 | [6] -0.004 | [7] 0.005 | [8] 0.029 | [9] 0.037 | [10] 0.01

VPS41 (UniProt P49754)
inactive: [1] -0.134 | [2] 0.034 | [3] -0.012 | [4] -0.039 | [5] -0.094 | [6] -0.03 | [7] 0 | [8] 0.013 | [9] -0.084 | [10] 0.08

WDR45 (UniProt Q9Y484)
inactive: [1] -0.049 | [2] 0.039 | [3] 0.001 | [4] 0.015 | [5] 0.038 | [6] 0.005 | [7] 0.014 | [8] -0.024 | [9] -0.009 | [10] 0.034

WDR5 (UniProt P61964)
inactive: [1] 0.088 | [2] -0.108 | [3] -0.022 | [4] 0.063 | [5] 0.118 | [6] -0.022 | [7] -0.153 | [8] -0.057 | [9] 0.052 | [10] -0.15

WDR3 (UniProt Q9UNX4)
inactive: [1] 0.077 | [2] 0.012 | [3] 0.016 | [4] -0.125 | [5] 0.062 | [6] -0.086 | [7] -0.285 | [8] -0.063 | [9] 0.003 | [10] -0.171

WEE1 (UniProt P30291)
inactive: [1] -0.152 | [2] -0.062 | [3] 0.182 | [6] 0.311 | [7] -0.043 | [8] -0.037 | [9] -0.037 | [10] 0.394
active: [4] -0.905 | [5] 0.805

VPS35 (UniProt Q96QK1)
inactive: [1] -0.066 | [2] 0.032 | [3] -0.016 | [4] -0.02 | [5] -0.044 | [6] -0.034 | [7] 0.023 | [8] -0.007 | [9] -0.037 | [10] 0.066

2 records drawn at random from those above, as already listed:
WDR3 (UniProt Q9UNX4)
inactive: [1] 0.077 | [2] 0.012 | [3] 0.016 | [4] -0.125 | [5] 0.062 | [6] -0.086 | [7] -0.285 | [8] -0.063 | [9] 0.003 | [10] -0.171

WDR45 (UniProt Q9Y484)
inactive: [1] -0.049 | [2] 0.039 | [3] 0.001 | [4] 0.015 | [5] 0.038 | [6] 0.005 | [7] 0.014 | [8] -0.024 | [9] -0.009 | [10] 0.034

The results go on:

VWA3B isoform 6 (UniProt Q502W6)
inactive: [1] 0.074 | [2] 0.024 | [3] -0.128 | [4] 0.075 | [5] 0.148 | [6] -0.129 | [7] 0.045 | [8] 0.003 | [9] 0.047 | [10] 0.014

WDR74 (UniProt Q6RFH5)
inactive: [1] 0.076 | [2] -0.01 | [3] -0.027 | [4] 0.012 | [5] 0 | [6] 0.038 | [7] -0.085 | [8] -0.024 | [9] 0.055 | [10] -0.035

WDR89 (UniProt Q96FK6)
inactive: [1] -0.016 | [2] -0.001 | [3] 0.024 | [4] -0.019 | [5] 0.058 | [6] -0.005 | [7] 0.015 | [8] 0.001 | [9] 0.024 | [10] 0.046

VPS26A (UniProt O75436)
inactive: [1] 0.066 | [2] 0.076 | [3] -0.04 | [4] 0.049 | [5] -0.043 | [6] -0.023 | [7] 0.047 | [8] 0.005 | [9] -0.04 | [10] 0.042

VPS18 (UniProt Q9P253)
inactive: [1] -0.097 | [2] 0.059 | [3] -0.052 | [4] -0.069 | [5] -0.194 | [6] -0.022 | [7] 0.086 | [8] 0.089 | [9] -0.047 | [10] 0.088

VPS39 (UniProt Q96JC1)
inactive: [1] -0.032 | [2] 0.069 | [3] -0.019 | [4] -0.068 | [5] -0.15 | [6] -0.017 | [7] 0.033 | [8] 0.003 | [9] -0.058 | [10] 0.027

WDR12 (UniProt Q9GZL7)
inactive: [1] -0.048 | [2] -0.033 | [3] -0.009 | [4] 0 | [5] 0.036 | [6] -0.031 | [7] 0.011 | [8] -0.03 | [9] -0.01 | [10] -0.009

WDR73 (UniProt Q6P4I2)
inactive: [1] -0.022 | [2] -0.025 | [3] -0.023 | [4] -0.039 | [5] 0.02 | [6] 0.004 | [7] 0.027 | [8] 0.024 | [9] 0.003 | [10] 0.007

WASHC5 (UniProt Q12768)
inactive: [1] -0.052 | [2] 0.044 | [3] -0.046 | [4] -0.001 | [5] -0.112 | [6] -0.004 | [7] 0.005 | [8] 0.086 | [9] -0.001 | [10] 0.027

VKORC1L1, A0A3B3ISV4
inactive: [1] -0.071 | [2] 0.03 | [3] -0.007 | [4] 0.016 | [5] -0.001 | [6] -0.088 | [7] 0.012 | [8] 0.268 | [9] 0.155 | [10] 0.041

VPS4B (UniProt O75351)
inactive: [1] -0.078 | [2] 0.037 | [3] -0.024 | [4] -0.012 | [5] -0.109 | [6] 0.02 | [7] 0.028 | [8] -0.012 | [9] -0.086 | [10] -0.065

WDR36 (UniProt Q8NI36)
inactive: [1] 0.075 | [2] -0.015 | [3] 0.024 | [4] 0.078 | [5] -0.052 | [6] 0.108 | [7] -0.13 | [8] -0.085 | [9] 0.015 | [10] -0.038

WDR7 (UniProt Q9Y4E6)
inactive: [1] -0.034 | [2] 0.082 | [3] -0.089 | [4] -0.01 | [5] -0.058 | [6] -0.034 | [7] 0.085 | [8] -0.084 | [9] 0.058 | [10] -0.118

VDAC1 (UniProt P21796)
inactive: [1] -0.039 | [2] -0.037 | [3] 0.006 | [4] 0.025 | [5] 0.035 | [6] -0.005 | [7] 0.02 | [8] 0.008 | [9] 0.017 | [10] 0.02

VPS26C (UniProt O14972)
inactive: [1] -0.009 | [2] 0.017 | [3] 0.06 | [4] -0.205 | [5] -0.049 | [6] -0.091 | [7] 0.005 | [8] -0.073 | [9] 0.042 | [10] -0.005

WDR41 (UniProt Q9HAD4)
inactive: [1] -0.139 | [2] 0.169 | [3] 0 | [4] -0.076 | [5] -0.082 | [6] -0.017 | [7] 0.012 | [8] -0.003 | [9] 0.023 | [10] 0.071

WIZ (UniProt O95785)
inactive: [1] -0.036 | [2] 0.013 | [3] -0.011 | [4] -0.017 | [5] -0.015 | [6] -0.109 | [7] -0.01 | [8] -0.052 | [9] 0.009 | [10] 0.072

WDHD1 (UniProt O75717)
inactive: [1] -0.009 | [2] 0.008 | [3] -0.005 | [4] -0.12 | [5] -0.076 | [6] -0.021 | [7] 0.03 | [8] 0.022 | [9] -0.041 | [10] 0.067

WASH2P (UniProt Q6VEQ5)
inactive: [1] -0.06 | [2] 0.017 | [3] -0.069 | [4] -0.019 | [5] 0.03 | [6] 0.01 | [7] -0.008 | [8] 0.011 | [9] 0.043 | [10] 0.06

VPS4A (UniProt Q9UN37)
inactive: [1] -0.028 | [2] 0.073 | [3] -0.089 | [4] 0.001 | [5] -0.119 | [6] 0.017 | [7] 0.044 | [8] -0.004 | [9] -0.063 | [10] -0.078

VMP1 (UniProt Q96GC9)
inactive: [1] -0.064 | [2] -0.014 | [3] 0.07 | [4] -0.027 | [5] 0.014 | [6] 0.053 | [7] 0.015 | [8] 0.012 | [9] 0.04 | [10] 0.033

WBP11 (UniProt Q9Y2W2)
inactive: [1] -0.034 | [2] 0.022 | [3] 0.008 | [4] 0.015 | [5] 0.043 | [6] -0.001 | [7] -0.017 | [8] -0.035 | [9] 0.022 | [10] -0.015

WRAP73 (UniProt Q9P2S5)
inactive: [1] -0.042 | [2] -0.04 | [3] -0.01 | [4] 0.041 | [5] 0.053 | [6] 0.007 | [7] 0.037 | [8] 0.008 | [9] 0.018 | [10] -0.031

— the supplement of paper PMC10849652
